Data as given in PubChem BioAssay AID1159578 (Peter MacCallum Cancer Centre, 2015)

Test: 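Knock-downs that alter how fast lymphatic endothelial cells migrate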 (primary screen)
Cell system: human lymphatic endothelial cells
Reagents: siRNA pool against human genes, 40 nM
Timing: 48 h after transfection
Measurement: 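Cells stained with dye and imaged after a scratch; covered wound area and nuclei counted, duplicates averaged, migration set against mock wells and turned into a robust z-score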
Direction: migration robust z-score: higher = faster migration into the scratch; nuclei per well: higher = more cells in the well
Call rule: 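Migration changed when robust z exceeds 2 or falls below -2 and mean nuclei number is at least 3300; otherwise not called changed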
Calls: active = migration changed; inactive = no migration change, or too few cells
Shown is one part, drawn at random, of about 18,000 reagents. In the full data, about 1,030 (5.7%) got an active call. 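Inactive calls also include pools with fewer than 3300 nuclei, whose migration was not assessed.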 Raw values are not corrected between plates. Reagents against one gene are numbered here. Further read-outs or replicates are left out here.

no.	Target gene	reagent	migration robust z-score	nuclei per well, duplicate mean	call
1	NRG4 (neuregulin 4)	1	0.32	6479	inactive
2	KRTAP4-1 (keratin associated protein 4-1)	1	1.06	5873	inactive
3	YTHDF1 (YTH N6-methyladenosine RNA binding protein F1)	1	-0.03	5848	inactive
4	CPLX1 (complexin 1)	1	0.13	5262	inactive
5	GMPR (guanosine monophosphate reductase)	1	0.44	5290	inactive
6	TBC1D17 (TBC1 domain family member 17)	1	1.22	3458	inactive
7	IFNB1 (interferon beta 1)	1	-0.41	5590	inactive
8	LRWD1 (leucine rich repeats and WD repeat domain containing 1)	1	-0.26	5012	inactive
9	SCAF1 (SR-related CTD associated factor 1)	1	-0.88	5129	inactive
10	PPCDC (phosphopantothenoylcysteine decarboxylase)	1	1.84	5662	inactive
11	GALNT2 (polypeptide N-acetylgalactosaminyltransferase 2)	1	0.21	4767	inactive
12	ACAA1 (acetyl-CoA acyltransferase 1)	1	0.08	5812	inactive
13	SIRAL2 (SIR2 antiphage like 2)	1	-0.34	6118	inactive
14	SNX6 (sorting nexin 6)	1	0.3	5714	inactive
15	KRTAP4-11 (keratin associated protein 4-11)	1	-0.46	5270	inactive
16	MLLT11 (MLLT11 transcription factor 7 cofactor)	1	-0.8	5672	inactive
17	ILKAP (ILK associated serine/threonine phosphatase)	1	-0.31	5357	inactive
18	PML (PML nuclear body scaffold)	1	1.12	6794	inactive
19	YLPM1 (YLP motif containing 1)	1	1.58	6539	inactive
20	DNM1 (dynamin 1)	1	-0.47	5086	inactive
21	ZXDB (zinc finger X-linked duplicated B)	1	-0.37	5520	inactive
22	SMAD7 (SMAD family member 7)	1	-0.18	5890	inactive
23	HBM (hemoglobin subunit mu)	1	-0.38	5164	inactive
24	MAP3K11 (mitogen-activated protein kinase kinase kinase 11)	1	-0.91	5278	inactive
25	GALNS (galactosamine (N-acetyl)-6-sulfatase)	1	-0.7	5576	inactive
26	FXYD3 (FXYD domain containing ion transport regulator 3)	1	0.55	3938	inactive
27	ABCA12 (ATP binding cassette subfamily A member 12)	1	0.7	5684	inactive
28	EDNRB (endothelin receptor type B)	1	1.22	6486	inactive
29	JSRP1 (junctional sarcoplasmic reticulum protein 1)	1	-0.32	5048	inactive
30	KLHL9 (kelch like family member 9)	1	-0.38	4382	inactive
31	NLRP9 (NLR family pyrin domain containing 9)	1	-0.46	3512	inactive

A portion from the list above, as a working copy:
no.	Target gene	reagent	migration robust z-score	nuclei per well, duplicate mean	call
13	SIRAL2 (SIR2 antiphage like 2)	1	-0.34	6118	inactive
14	SNX6 (sorting nexin 6)	1	0.3	5714	inactive
15	KRTAP4-11 (keratin associated protein 4-11)	1	-0.46	5270	inactive
16	MLLT11 (MLLT11 transcription factor 7 cofactor)	1	-0.8	5672	inactive
17	ILKAP (ILK associated serine/threonine phosphatase)	1	-0.31	5357	inactive
18	PML (PML nuclear body scaffold)	1	1.12	6794	inactive

More results:
no.	Target gene	reagent	migration robust z-score	nuclei per well, duplicate mean	call
32	CYB5A (cytochrome b5 type A)	1	-1.17	4854	inactive
33	FOXRED1 (FAD dependent oxidoreductase domain containing 1)	1	0.32	7406	inactive
34	PLEKHH2 (pleckstrin homology, MyTH4 and FERM domain containing H2)	1	0.35	6214	inactive
35	NBPF1 (NBPF member 1)	1	-0.64	5000	inactive
36	SMPD4 (sphingomyelin phosphodiesterase 4)	1	-0.2	6434	inactive
37	CHMP5 (charged multivesicular body protein 5)	1	2.3	6914	active
38	TYSND1 (trypsin like peroxisomal matrix peptidase 1)	1	-0.7	5539	inactive
39	SRD5A1 (steroid 5 alpha-reductase 1)	1	0.54	5210	inactive
40	NEBL (nebulette)	1	-0.36	6060	inactive
41	NEBL (nebulette)	2	0.5	7248	inactive
42	PPBP (pro-platelet basic protein)	1	0.33	6143	inactive
43	S100A8 (S100 calcium binding protein A8)	1	-2.88	5343	active
44	MMP15 (matrix metallopeptidase 15)	1	-0.5	5418	inactive
45	SEMA3G (semaphorin 3G)	1	0.08	6012	inactive
46	SETMAR (SET and mariner transposase domain methyltransferase)	1	0	6040	inactive
47	EEF2KMT (eukaryotic elongation factor 2 lysine methyltransferase)	1	-1.27	5421	inactive
48	FAM174C (family with sequence similarity 174 member C)	1	0.78	4981	inactive
49	CXCL6 (C-X-C motif chemokine ligand 6)	1	-1.82	4438	inactive
50	NFATC3 (nuclear factor of activated T cells 3)	1	0.88	6100	inactive
51	TUSC1 (tumor suppressor candidate 1)	1	2.1	5514	active
52	MAGEE1 (MAGE family member E1)	1	0.51	5836	inactive
53	FIS1 (fission, mitochondrial 1)	1	-0.67	4198	inactive
54	CXCL8 (C-X-C motif chemokine ligand 8)	1	-0.5	5552	inactive
55	POMT1 (protein O-mannosyltransferase 1)	1	0.8	6209	inactive
56	CD24 (CD24 molecule)	1	-5.06	2200	inactive
57	MBD3L1 (methyl-CpG binding domain protein 3 like 1)	1	-0.66	5984	inactive
